# This is one part of the list. These are further read-outs of the screen, such as a control signal, another cell line or another target. No call is given for them. Most of these compounds were active or inconclusive in the main read-out, so they are no random draw. Words in brackets tell the shape of the fitted curve; partial curves, single points and poor fits give uncertain potencies.
# Test: qHTS Assay to Find Inhibitors of Chronic Active B-Cell Receptor Signaling
# Conditions: ABC-DLBCL IkBa-CBG/CBR reporter, luminescence ratio (green luciferase fused to IkBa over red control in TMD8 lymphoma cells), 4 h
# How it was run: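 Cell line TMD8 (human ABC DLBCL), stably expressing tet-inducible CBG68-IkBa fusion and CBR; IMDM/0.5% FBS; cpd up to 46 uM; dox induction, 4 h, 37C/5% CO2; dual luminescence; green/red ratio; MG132 control.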
# [1] = measured here: CBR red luminescence, cell number
SMILES,AC50 [1],AC50 (measured here: IkBa-CBG green luminescence)
O=C(CCN1C(=O)c2ccccc2S1(=O)=O)Nc1cc(Cl)ccc1Cl,"7.31 µM [rising, partial curve]",
COC(=O)c1ccc(COc2ccc(/C=N/NC(N)=S)cc2)o1,"7.08 µM [falling, full curve]",
c1coc(CSSCc2ccco2)c1,"14.6 µM [rising, single point]",
Cn1c(N2CCN(C(=O)C34CC5CC(CC(C5)C3)C4)CC2)nc2ccccc21,"29.1 µM [falling, single point]",
Cc1cc(C)c2cc(C(=O)N3CCN(c4ncccc4C(F)(F)F)CC3)[nH]c2c1,"6.31 µM [falling, single point]",
O=C(Nc1nccs1)c1ccc2c(c1)OCO2,"20 µM [falling, single point]",
Oc1ccc(/C=N/Nc2ccc(C(F)(F)F)cn2)c(O)c1,"2.82 µM [rising, single point]",
CNC(=O)c1[nH]cnc1C(=O)Nc1cccc(OC)c1,"0.58 µM [falling, full curve, poor fit]",
CCOC(=O)C1=C(COC(=O)COc2ccc(Br)cc2)NC(=O)NC1C (centres undefined),"25.9 µM [falling, partial curve, poor fit]",
O=C(N/N=C/c1ccncc1)c1ccc(-n2cccc2)cc1,"5.8 µM [rising, full curve]",
CN(/N=C/c1cc(Br)cc(Br)c1O)c1cccc(C(F)(F)F)n1,"2.24 µM [rising, full curve, poor fit]","10 µM [falling, partial curve]"
CC(C)CCNC(=O)c1nn(Cc2ccccc2)c(=O)c2ccccc12,"3.55 µM [falling, single point]",
O=C(NC1CC1)c1cccc(NC(=O)c2cnn(-c3ccccc3)n2)c1,"11.6 µM [falling, single point]",
O=C(CCl)NCc1cc(-c2ccc(Cl)cc2)no1,"14.1 µM [falling, partial curve, poor fit]",
O=C(CCC1CCCC1)NCc1ccccn1,"35.5 µM [rising, single point]",
COC(=O)C1=C(N)Oc2cc(C)n(CCCn3ccnc3)c(=O)c2C1c1cccc(Cl)c1 (centres undefined),"2.31 µM [rising, full curve, poor fit]",
CC(C)(C)NC(=O)C(c1ccc(O)cc1)N(Cc1ccco1)C(=O)Cn1nnc(-c2cccs2)n1 (centres undefined),"0.206 µM [falling, full curve, poor fit]",
COc1ccc(-c2nc(N=Nc3ccc(O)cc3)n[nH]2)cc1,"25.9 µM [falling, single point]",
CCN(CC)C(=O)Cn1cc(C(=O)C(=O)NCc2cccs2)c2ccccc21,"0.631 µM [falling, full curve, poor fit]",
CN(C)CCCOC(=O)c1ccccc1Cl,"10.3 µM [rising, partial curve]",
O=C(NCCc1c[nH]c2ccccc12)Nc1ccccc1,"18.4 µM [falling, partial curve]",
O=C(CCCN1C(=O)c2ccccc2C1=O)Nc1ccc2c(c1)OCCO2,"7.08 µM [rising, partial curve, poor fit]",

SMILES,AC50 [1],AC50 (measured here: IkBa-CBG green luminescence)
Cc1csc(NC(=O)CSc2nnc(-c3ccccc3)o2)n1,"6.51 µM [falling, partial curve]",
N#Cc1ncc(Cc2ccccc2)nc1C#N,"35.5 µM [falling, single point]",
O=C(COc1ccccc1[N+](=O)[O-])Nc1cccc(S(=O)(=O)N2CCCC2)c1,"3.66 µM [falling, partial curve, poor fit]",
Cc1ccccc1-n1c(=O)[nH]c(=O)c2c(N)c(C(=O)c3ccc(Cl)cc3)sc21,"1.3 µM [rising, full curve]",
Cc1ccsc1C(=O)N/N=C/c1ccc([N+](=O)[O-])cc1,"2.31 µM [falling, full curve]",
O=C(CNc1cccc(F)c1)N1CCc2ccccc2C1,"3.55 µM [falling, full curve]",
Cc1cc(NC(=O)CCCN2C(=O)/C(=C\c3cccs3)SC2=S)no1,"13 µM [falling, partial curve]",
c1coc(CN(Cc2ccco2)c2ncnc3c2oc2ccccc23)c1,"7.31 µM [falling, partial curve, poor fit]",
Brc1ccccc1OCCOCCOc1cccc2cccnc12,"2.24 µM [rising, partial curve, poor fit]",
COc1cc(C(=O)O/N=C(\N)c2cccc([N+](=O)[O-])c2)cc(OC)c1OC,"5.01 µM [rising, partial curve]",
N#CC1(c2ccccc2)CCC(=NNS(=O)(=O)c2ccccc2)CC1 (centres undefined),"1.16 µM [rising, full curve, poor fit]",
c1ccc2sc(NN=C3CCCCCC3)nc2c1,"11.2 µM [falling, partial curve, poor fit]",
CC(Sc1nc2ncc(Cl)cc2[nH]1)C(=O)Nc1ccc(C(N)=O)cc1 (centres undefined),"16.4 µM [rising, partial curve, poor fit]",
Cc1cc(C(=O)N/N=C/c2ccc(N(C)C)o2)cs1,"8.91 µM [falling, single point]",
O=C(Nc1nnc(-c2ccccc2)o1)c1nc2ccccc2s1,"1.78 µM [falling, full curve]",
O=C(Nc1cccc([N+](=O)[O-])c1)C1C2CC/C=C\CCC21 (centres undefined),"35.5 µM [rising, single point]",
Cc1cccc(-c2nc(CN3CCCC(C(=O)NC4CCC(C)CC4)C3)c(C)o2)c1 (centres undefined),"31.6 µM [rising, single point]",
Cc1ccnc(N=Cc2nc(-c3ccccc3Br)oc2O)c1,"5.62 µM [falling, full curve]",
CS(=O)(=O)c1ccc(Cl)c(NC(=O)CCN2C(=O)NC3(CCCC3)C2=O)c1,"20.6 µM [rising, single point]",
Cc1ccc(C2=NN(CC(=O)NCCc3ccc(Cl)cc3)C(=O)CC2)cc1,"22.4 µM [falling, single point]",
O=[N+]([O-])c1ccc(Oc2cccc3cccnc23)c(Cl)c1,"35.5 µM [rising, partial curve, poor fit]",

# Record cards (already shown).
# `CCN(CC)C(=O)Cn1cc(C(=O)C(=O)NCc2cccs2)c2ccccc21` in the list: AC50 [1]: 0.631 µM [falling, full curve, poor fit]
# `O=C(COc1ccccc1[N+](=O)[O-])Nc1cccc(S(=O)(=O)N2CCCC2)c1` in the list: AC50 [1]: 3.66 µM [falling, partial curve, poor fit]
# `CN(/N=C/c1cc(Br)cc(Br)c1O)c1cccc(C(F)(F)F)n1` in the list: AC50 [1]: 2.24 µM [rising, full curve, poor fit]; AC50 (measured here: IkBa-CBG green luminescence): 10 µM [falling, partial curve]

# Reference: PubChem BioAssay AID493014 (National Center for Advancing Translational Sciences (NCATS), 2011)
